The results in this text go back to article PMC9251544.

In the test the target is T1, 3×HA-xtMc1r (Xenopus tropicalis melanocortin 1 receptor) (Xenopus tropicalis).
T1 sequence: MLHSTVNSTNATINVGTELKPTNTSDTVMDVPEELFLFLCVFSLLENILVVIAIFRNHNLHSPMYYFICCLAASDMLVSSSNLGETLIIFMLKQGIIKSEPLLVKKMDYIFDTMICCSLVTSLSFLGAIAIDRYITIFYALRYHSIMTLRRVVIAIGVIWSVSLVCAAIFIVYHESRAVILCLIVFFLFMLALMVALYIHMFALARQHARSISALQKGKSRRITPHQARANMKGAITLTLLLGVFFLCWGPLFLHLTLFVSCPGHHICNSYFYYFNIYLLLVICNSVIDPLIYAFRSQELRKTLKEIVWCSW
Nature of the test: co-IP; 3×HA-xtMc1r and v5-xtMraps-flag co-transfected in HEK293T; lysate incubated with anti-HA rabbit mAb overnight at 4°C, protein A+G agarose beads; blots with anti-HA and anti-FLAG.

Results are given in words; binding and its absence hold for the method and conditions named. Binding seen in cells or lysates may run through a third protein. Some entries that bind do so weakly or less than the wild type. Where a sequence is shown, tags or fusion partners need not be part of it.

B1: v5-xtMrap2-flag (Xenopus tropicalis melanocortin receptor accessory protein 2) (protein, UniProt A0A7D9NLE1 1-205)
chain: MSEQTVQTNRTSHKQLSNSDYTWEYEYYEYAPVSFEGLKAHKYSIVIGFWVGLAVFVIFMFFVLTLLAKTGAPHQENVDSLEKQFRMDSFAPDFGRNTEADTDRIFSRNVTEESRSLFHCYINEVDQPERIKNRNRAMDNEIIIQQTIRNSKVEEDINMIAKFNIPNFVNTDQSSSIGDDDLLLYDPPMNLENKAVHTSLCDFMN
For B1, the binding result was “binds”.
